The list shows a part of the results.

Protein sequences, listed by entry. Tags and fused reporters are not part of them.
UniProt Q0JBA9, entry or part of it: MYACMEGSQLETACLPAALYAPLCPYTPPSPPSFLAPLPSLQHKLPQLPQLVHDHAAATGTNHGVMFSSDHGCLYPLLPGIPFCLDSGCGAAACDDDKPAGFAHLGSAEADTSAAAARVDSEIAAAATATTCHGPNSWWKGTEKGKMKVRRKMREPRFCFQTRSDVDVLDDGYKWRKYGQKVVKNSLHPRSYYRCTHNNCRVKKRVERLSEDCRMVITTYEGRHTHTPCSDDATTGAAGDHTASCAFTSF

The experiment has as its target OsWRKY34 (Oryza sativa, UniProt Q0JBA9 1-250). The experiment is described as follows: protein-binding microarray (RPBM); PBS, 2% BSA, 51.3 ng/ul salmon testes DNA, 50 uM zinc acetate, 200 nM TF, 25 C, 1 h; high values mean tight binding. The conditions noted are these: protein: recombinant; tags: N-terminal polyhistidine and DsRed monomer fusion (pET32a); label: CyDye5-dUTP incorporated in the synthesized complementary strand; 3' TTTTT single-stranded linker to array surface; dsDNA, one strand shown. The procedure, abridged: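 The binding signal is fluorescence intensity per feature, in arbitrary units, read on an Axon 4000B scanner. Polyhistidine- and DsRed-tagged transcription factors (N-terminal fusions) from E. coli BL21-CodonPlus were purified on Ni–NTA and applied at 200 nM for 1 h at 25 °C to a double-stranded, BSA-blocked custom Agilent array in buffer with 50 µM zinc acetate.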
“TTGACACCATTGACTTTTTTAAACATGTTTGACCGTTCGTCGGAGTCACCTAGTGCAG”: the binding signal is 15100 fluorescence intensity (a.u.).

For the sequence “ACACAAACTGTAGCTTTTTGGAGCTTCCACGTATTGTTTTCGGAGTCACCTAGTGCAG”, the binding signal was 8580 fluorescence intensity (a.u.). As for “CCTACCCCGACCTCTCTCATCCTCGCCCTCACCGTCTCCACGGAGTCACCTAGTGCAG”, the binding signal is 9970 fluorescence intensity (a.u.). Then “ACTCTGTTACATCCTGAACCGTGGGCCCATCTTATTTAACCGGAGTCACCTAGTGCAG”, with 9020 fluorescence intensity (a.u.). Regarding “TTTTTTTCTTTCTTCCTTATCCATCCCTCTCTCTCTCTTTCGGAGTCACCTAGTGCAG”, the binding signal is 8320 fluorescence intensity (a.u.). For “AGCTAGTATTCCGCTTTCTTGATAAAGCTGTTTCCGATCTCGGAGTCACCTAGTGCAG”, the binding signal is 8620 fluorescence intensity (a.u.). Under “TTTCCAATCAATACATTGCCAATTTGCCATGCCCCGCGCGCGGAGTCACCTAGTGCAG” stands 10000 fluorescence intensity (a.u.); under “TCCCACAGCCACAAATTATCATGTCACAATTTCTCCATTTCGGAGTCACCTAGTGCAG”, 8110 fluorescence intensity (a.u.); under “TTATATGTGGCTATTTTCTACAACTTGTTAGCCAATTTCTCGGAGTCACCTAGTGCAG”, 8550 fluorescence intensity (a.u.). Under “CTTGTTACTAATATACTAGTATTTGAGTGTTACACGTTTTCGGAGTCACCTAGTGCAG” stands 8380 fluorescence intensity (a.u.). For “CATCTCCCAATCCACTACTTCTTGCTGATCATCATATATCCGGAGTCACCTAGTGCAG”, the binding signal is 10100 fluorescence intensity (a.u.). In the case of “CTCCTCGGGCTAAAAGTGGTAATACGCGTTTCTCAAGCTTCGGAGTCACCTAGTGCAG”, the binding signal is 9930 fluorescence intensity (a.u.). Regarding “AAAATTTTCGTCCTTTTTTGCTGTTAAAATAATTTAATTTCGGAGTCACCTAGTGCAG”, the binding signal was 9370 fluorescence intensity (a.u.). With “CTCTCTCTCTCTCTCTCTCTCTCTCTCTCTGATTGTTCTCCGGAGTCACCTAGTGCAG”, the binding signal is 12500 fluorescence intensity (a.u.). As for “CCTTAAATCTGCTCTCGTACTCGTACGTCCATTTCCCTTGCGGAGTCACCTAGTGCAG”, the binding signal was 8560 fluorescence intensity (a.u.). Under “CTTCCTTGCCACTACCCACTACTATCCCCACCCGTGTCCCCGGAGTCACCTAGTGCAG” stands 10100 fluorescence intensity (a.u.); under “GTTTGTGCTTCTCTCTGTGTGTGAATCGAGGAAAGCCTCGCGGAGTCACCTAGTGCAG”, 8240 fluorescence intensity (a.u.). Then “TCTAAAGGCAGTGCCGCTAGTGATCCCAAGTTCCAAGAGTCGGAGTCACCTAGTGCAG”, with 8710 fluorescence intensity (a.u.). “GTTAGGATTTAAAGATGTCTTTTGGTGGGTGGGAAATCATCGGAGTCACCTAGTGCAG”: the binding signal is 9160 fluorescence intensity (a.u.). Then “CTGTGGTCTAAGCTTACTGACTCGGTTTCCATGTATTTTGCGGAGTCACCTAGTGCAG”, with 8110 fluorescence intensity (a.u.).

On to “GCACAACAACATTGCGTCCCTATTAATAGTACGATATTCTCGGAGTCACCTAGTGCAG”, for which the binding signal is 8680 fluorescence intensity (a.u.). Under “CCCTTGCCACCATCCATTCCGCCGGCGCCTTATCCTACCCCGGAGTCACCTAGTGCAG” stands 8050 fluorescence intensity (a.u.).

As to “AAAAATTTTTTTTCCTTTTTTTCTCCACTTTTCCACCTCTCGGAGTCACCTAGTGCAG”, the binding signal was 8990 fluorescence intensity (a.u.).

The values are drawn from PMC7819943, “Rice protein-binding microarrays: a tool to detect cis-acting elements near promoter regions in rice”.
